This passage reports binding results from PMC9715692.

Chains of the proteins cited; added tags and fusions are not shown. Lines headed by an entry give the natural chain unless they say otherwise; changes in a name come on top. Residues count along the entry.
UniProt P9WJU0, whole entry, stated change not applied: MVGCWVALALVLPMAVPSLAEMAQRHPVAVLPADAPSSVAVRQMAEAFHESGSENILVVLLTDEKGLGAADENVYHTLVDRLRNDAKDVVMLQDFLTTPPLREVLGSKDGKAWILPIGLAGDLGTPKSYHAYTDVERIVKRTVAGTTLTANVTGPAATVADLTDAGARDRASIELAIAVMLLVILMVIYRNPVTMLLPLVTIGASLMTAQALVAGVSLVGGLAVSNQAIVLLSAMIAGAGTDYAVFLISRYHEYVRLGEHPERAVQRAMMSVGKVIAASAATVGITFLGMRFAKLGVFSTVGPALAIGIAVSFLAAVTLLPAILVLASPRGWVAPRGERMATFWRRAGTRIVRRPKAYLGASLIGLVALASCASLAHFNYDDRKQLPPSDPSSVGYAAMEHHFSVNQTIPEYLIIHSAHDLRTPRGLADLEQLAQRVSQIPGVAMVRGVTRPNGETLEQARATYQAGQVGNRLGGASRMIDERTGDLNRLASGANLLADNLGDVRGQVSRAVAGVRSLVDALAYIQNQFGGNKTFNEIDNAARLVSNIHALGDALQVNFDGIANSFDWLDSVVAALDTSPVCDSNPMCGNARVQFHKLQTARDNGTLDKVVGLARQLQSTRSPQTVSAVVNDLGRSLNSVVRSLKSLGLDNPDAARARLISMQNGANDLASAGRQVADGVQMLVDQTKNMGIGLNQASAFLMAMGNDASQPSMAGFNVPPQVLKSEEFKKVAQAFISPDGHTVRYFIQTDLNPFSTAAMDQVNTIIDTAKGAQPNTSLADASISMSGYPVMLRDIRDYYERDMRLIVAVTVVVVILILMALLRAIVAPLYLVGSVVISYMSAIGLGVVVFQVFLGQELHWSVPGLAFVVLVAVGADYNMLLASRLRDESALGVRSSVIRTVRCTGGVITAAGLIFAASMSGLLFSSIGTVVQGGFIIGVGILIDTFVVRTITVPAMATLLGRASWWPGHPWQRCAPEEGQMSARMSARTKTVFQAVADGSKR
UniProt P01579, 24-161: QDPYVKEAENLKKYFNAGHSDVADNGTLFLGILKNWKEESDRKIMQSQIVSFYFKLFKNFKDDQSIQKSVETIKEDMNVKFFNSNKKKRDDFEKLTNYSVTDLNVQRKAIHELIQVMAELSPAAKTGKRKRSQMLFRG

These are yes or no findings as the source states them, for the method shown. Some entries that bind do so weakly or less than the wild type.

For the experiment, the target named is MmpL10 expressed from pMV762::mmpl10 in the Δmmpl10 Mtb transposon mutant (mmpl10-complemented strain) (Mycobacterium tuberculosis) (UniProt P9WJU0). The experiment in a line: flow cytometry on cells; whole bacteria fixed in 4% PFA mixed with varying concentrations of cytokine overnight at 4 °C; pellets stained with anti-IFN-γ Brilliant Violet 421 (clone 4S.B3) or anti-TNF-α Alexa Fluor 700 (clone MAb11); only the binder purified. A general note: In flow cytometry, cells or beads pass a laser one at a time.

In the case of “recombinant human Interferon-γ (from UniProt P01579 24-161) (ligand)”, the binding result is “binds”.
